The data set can be described thus: Flavor ingredient evaluation (odor and taste).

The structures appear in SMILES notation.

In the case of `O=C(O)CC(=O)C(=O)O` [Oxaloacetic Acid], the flavor imparted entry is “tartness and a mix between a lemon and a lime”; the odor result is on record as “pleasant citrus type smell”; the “smallest concentration producing a noticeable flavor” value was determined as 2 mM. The “taste on grilled steak” value (10 mg instead of table salt) was “very taste pleasing effect”. Moreover, the beverage flavor entry (100 mg added to 8 ounces of water) was “strong flavor between a lemon and a lime”. For the setting “100 mg in 1 oz. virgin olive oil and 1 oz. apple cider vinegar, vs dressing without”, the salad dressing flavor result is “citrusy flavor”. Further, under “100 mg in 8 ounces of water”, the “beverage flavor compared to water containing both lemon juice and lime juice” value was “superior flavor”.
